Results deposited as PubChem BioAssay AID1508588 (Peter MacCallum Cancer Centre, 2020)
Test: 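Genome-wide search for knock-downs that heighten vemurafenib action in melanoma cells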 (primary screen). Cells: human WM266.4 melanoma cells (BRAF V600 mutant). Reagents: siRNA pool against human genes, 40 nM. Time to read-out: 96 h from transfection to read-out. Conditions: vemurafenib 300 nM (about IC25), added 48 h after transfection, for 48 h; comparison arm got DMSO vehicle only. Measurement: 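Ratios to non-targeting siRNA for cell gain, counted as DAPI nuclei after minus before drug and averaged over two replicates, and for absorbance-read medium lactate per cell; both binned into fold-change classes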. Scale: cell gain with vemurafenib: higher = more cell gain than with non-targeting siRNA; lactate per cell with vemurafenib: higher = more lactate made per cell. Active means: 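Enhancement is called by pairing each knock-down's vehicle-arm and drug-arm fold-change classes for viability or glycolysis; which class combinations qualify is not given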. Meaning of the calls: active = enhances vemurafenib effect; inactive = no enhancement seen.
Here is an unselected part of about 18,000 reagents. Over the whole deposit, 790 (4.4%) are marked active. 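Calls rest on a combination of fold-change classes in drug and vehicle arms, not all shown here.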

no.	target gene	cell gain with vemurafenib	lactate per cell with vemurafenib	Call
1	SLC17A5	0.79	0.64	inactive
2	PRMT2IP	0.23	2.04	inactive
3	B3GALT6	0.99	0.68	inactive
4	CCDC3	-0.02	1.19	active
5	AAR2	0.42	1.26	inactive
6	NFIL3	0.57	0.88	inactive
7	AARS1	0.98	0.43	active
8	EIF3A	0.08	1.17	inactive
9	FOLH1	0.49	0.46	active
10	PALM	0.94	1	inactive
11	PNPT1	0.84	0.94	inactive
12	C11orf42	0.5	1.23	inactive
13	CNPY2	0.81	0.72	inactive
14	PPFIA2	0.44	1.33	inactive
15	BCOR	0.4	0.96	inactive
16	OR7A5	0.2	1.32	inactive
17	ZKSCAN5	0.3	2.5	inactive
18	FLYWCH1	0.26	1.22	inactive
19	MORN4	0.36	0.74	inactive
20	MED20	0.4	1.4	inactive
21	PSG4	0.67	0.69	inactive
22	LAMA4	0.53	0.58	inactive
23	STRA8	0.27	1.17	inactive
24	FTL	1.01	0.82	inactive
25	NLRP1	0.54	0.77	inactive
26	SPMIP3	0.06	2.19	inactive
27	RPIA	0.72	1	inactive
28	TTC19	0.48	2.04	inactive
29	LMOD1	0.58	1.77	inactive
30	IL11	0.45	0.8	inactive
31	RNPEP	0.54	0.88	inactive
32	UBQLN3	0.72	0.57	inactive
33	ADGRF4	0.88	1.9	inactive
34	PTGER4	0.35	1.64	inactive
35	LTBP4	1.03	0.83	inactive
36	GPHRB	0.39	0.55	inactive
37	NOC3L	0.67	1.27	inactive
38	INTS13	0.46	1.44	inactive
39	SMPD1	0.47	0.42	inactive
40	SRP54	0.45	0.5	inactive
41	ZNF304	0.37	1.66	inactive
42	NSG2	0.22	0.68	active
43	PPT1	1.15	0.6	inactive
44	C6orf120	1.26	0.67	inactive
45	CER1	1.1	0.8	inactive
46	CTBP1-DT	0.73	0.58	inactive
47	DAW1	0.64	1.6	inactive
48	EID1	0.5	0.6	inactive

The list goes on (4 carried over from the part before).
no.	target gene	cell gain with vemurafenib	lactate per cell with vemurafenib	Call
45	CER1	1.1	0.8	inactive
46	CTBP1-DT	0.73	0.58	inactive
47	DAW1	0.64	1.6	inactive
48	EID1	0.5	0.6	inactive
49	LRG1	0.66	0.32	active
50	OSTF1	0.7	0.26	inactive
51	CCR4	0.88	0.56	inactive
52	CLMN	1.18	0.3	inactive
53	GLCCI1	0.1	2.36	inactive
54	TAF5L	0.71	1.4	inactive
55	PLIN1	0.99	0.84	inactive
56	PHOSPHO1	0.67	0.9	inactive
57	L3MBTL2	0.36	1.09	inactive
58	SLC16A4	0.78	1.17	inactive
59	CCR9	0.48	0.94	inactive
60	MTDH	0.09	1.02	inactive
61	FHOD3	0.35	0.96	inactive
62	BMP8A	0.74	0.81	inactive
63	OVCH2	1.21	0.78	inactive
64	CSTA	-0.21	0.45	inactive
65	ACTRT1	0.18	1.46	inactive
66	CCL27	0.63	0.54	inactive
67	SLC29A2	0.35	0.9	inactive
68	PRAMEF9	0.36	1.21	inactive
69	NUP54	0.49	0.81	inactive
70	IFNL3	0.66	0.28	inactive
71	FUCA2	0.57	0.86	inactive
72	LGALS9	0.15	0.94	inactive
73	OR1J1	0.42	0.68	inactive
74	ZNF75D	0.72	0.57	inactive
75	IFNW1	0.66	0.68	inactive
76	RUSC1	0.68	0.82	inactive
77	RAI1	0.25	0.63	inactive
78	COG5	0.93	0.78	inactive
79	LAIR2	0.68	0.76	inactive
80	ANTXR2	0.43	0.84	inactive
81	ATP6V1F	1.61	1.21	inactive
82	PLPPR2	0.11	1.74	inactive
83	TUBAL3	1.04	0.77	inactive
84	POLL	0.85	1.32	inactive
